Results reported in publication PMC12412560.
These are yes or no findings as the source states them, for the method shown. Binding seen in cells or lysates may run through a third protein. Some binding calls cover weakened binding; strength is not graded here. Tags and fused reporters may be left off the sequences shown.

Protein sequences, listed by entry. Tags and fused reporters are not part of them.
UniProt Q86TM6: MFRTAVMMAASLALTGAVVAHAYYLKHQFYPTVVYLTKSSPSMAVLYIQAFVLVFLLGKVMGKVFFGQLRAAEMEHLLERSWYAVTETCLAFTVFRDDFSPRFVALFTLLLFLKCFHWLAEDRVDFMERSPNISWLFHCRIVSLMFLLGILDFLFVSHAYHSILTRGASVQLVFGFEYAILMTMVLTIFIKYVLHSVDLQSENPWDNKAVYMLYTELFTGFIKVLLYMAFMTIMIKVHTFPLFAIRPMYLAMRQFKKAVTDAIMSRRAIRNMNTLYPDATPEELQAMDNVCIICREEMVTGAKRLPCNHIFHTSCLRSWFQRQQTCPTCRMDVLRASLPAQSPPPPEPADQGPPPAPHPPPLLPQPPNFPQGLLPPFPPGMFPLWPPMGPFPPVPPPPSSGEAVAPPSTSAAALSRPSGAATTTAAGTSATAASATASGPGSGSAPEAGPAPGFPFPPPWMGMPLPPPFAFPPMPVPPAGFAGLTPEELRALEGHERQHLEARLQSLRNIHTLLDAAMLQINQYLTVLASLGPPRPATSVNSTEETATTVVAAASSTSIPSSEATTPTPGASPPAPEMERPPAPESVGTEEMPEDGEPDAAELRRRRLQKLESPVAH

T1: hexokinase 2 (Flag-HK2) (UniProt P52789)
T1 sequence: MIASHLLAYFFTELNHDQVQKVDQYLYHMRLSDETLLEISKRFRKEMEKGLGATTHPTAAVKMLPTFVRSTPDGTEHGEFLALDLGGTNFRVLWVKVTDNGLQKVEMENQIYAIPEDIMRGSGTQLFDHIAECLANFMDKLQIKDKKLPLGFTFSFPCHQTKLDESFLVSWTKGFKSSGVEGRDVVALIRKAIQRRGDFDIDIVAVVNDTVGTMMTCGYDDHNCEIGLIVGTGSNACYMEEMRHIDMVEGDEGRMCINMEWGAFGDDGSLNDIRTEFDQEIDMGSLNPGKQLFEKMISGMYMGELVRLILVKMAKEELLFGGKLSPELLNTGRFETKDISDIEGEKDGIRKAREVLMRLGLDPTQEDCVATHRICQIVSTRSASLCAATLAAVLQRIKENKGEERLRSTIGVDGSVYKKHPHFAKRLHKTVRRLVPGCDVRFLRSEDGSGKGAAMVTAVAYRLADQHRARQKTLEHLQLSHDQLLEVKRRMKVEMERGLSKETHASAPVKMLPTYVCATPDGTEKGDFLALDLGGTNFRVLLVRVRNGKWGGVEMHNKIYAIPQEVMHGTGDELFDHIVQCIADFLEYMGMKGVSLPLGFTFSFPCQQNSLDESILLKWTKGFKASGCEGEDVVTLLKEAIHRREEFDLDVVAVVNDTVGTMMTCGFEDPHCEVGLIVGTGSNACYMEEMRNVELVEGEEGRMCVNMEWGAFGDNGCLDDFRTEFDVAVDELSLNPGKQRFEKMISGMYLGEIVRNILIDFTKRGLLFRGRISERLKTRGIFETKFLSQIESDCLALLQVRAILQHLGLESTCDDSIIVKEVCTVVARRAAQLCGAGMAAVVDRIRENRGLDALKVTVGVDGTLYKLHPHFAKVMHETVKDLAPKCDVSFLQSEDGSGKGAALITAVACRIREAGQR


Target: T1, hexokinase 2 (Flag-HK2)
Test: co-IP; Flag-HK2 overexpressed in KYSE-150 and Eca-109 cells; 500 ug whole cell lysate with 5 ug anti-Flag antibody overnight at 4 °C, IgG as control, Protein A + G agarose, Western blot; also done in PDIA3P1-KD cells (more MARCH8 precipitated) and PDIA3P1-OE cells (less MARCH8 precipitated)

| Molecule | binding |
| --- | --- |
| SYVN1 (from UniProt Q86TM6 1-617) (enzyme) | no binding |
| membrane-associated RING-CH 8 (MARCH8) (enzyme, UniProt Q5T0T0 1-291) MSMPLHQISAIPSQDAISARVYRSKTKEKEREEQNEKTLGHFMSHSSNISKAGSPPSASAPAPVSSFSRTSITPSSQDICRICHCEGDDESPLITPCHCTGSLHFVHQACLQQWIKSSDTRCCELCKYEFIMETKLKPLRKWEKLQMTSSERRKIMCSVTFHVIAITCVVWSLYVLIDRTAEEIKQGQATGILEWPFWTKLVVVAIGFTGGLLFMYVQCKVYVQLWKRLKAYNRVIYVQNCPETSKKNIFEKSPLTEPNFENKHGYGICHSDTNSSCCTEPEDTGAEIIHV | binds |
